{"sequences": {"note": "Sequences of proteins named here, by UniProt entry; tags and fusion partners are left off.", "CALR, P27797, UniProt P27797, whole entry": "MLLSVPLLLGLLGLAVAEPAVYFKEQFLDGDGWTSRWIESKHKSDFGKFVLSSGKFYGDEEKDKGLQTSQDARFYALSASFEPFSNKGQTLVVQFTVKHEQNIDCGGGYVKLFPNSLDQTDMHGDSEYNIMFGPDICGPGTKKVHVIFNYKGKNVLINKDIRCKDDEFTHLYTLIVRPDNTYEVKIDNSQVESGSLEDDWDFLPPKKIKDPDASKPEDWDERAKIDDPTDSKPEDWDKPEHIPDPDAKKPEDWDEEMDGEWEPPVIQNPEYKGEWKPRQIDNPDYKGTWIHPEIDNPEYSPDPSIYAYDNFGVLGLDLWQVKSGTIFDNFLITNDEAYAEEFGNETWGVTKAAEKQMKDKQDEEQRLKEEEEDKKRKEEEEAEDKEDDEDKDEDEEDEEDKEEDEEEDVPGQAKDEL", "MYO1C, O00159, UniProt O00159, whole entry": "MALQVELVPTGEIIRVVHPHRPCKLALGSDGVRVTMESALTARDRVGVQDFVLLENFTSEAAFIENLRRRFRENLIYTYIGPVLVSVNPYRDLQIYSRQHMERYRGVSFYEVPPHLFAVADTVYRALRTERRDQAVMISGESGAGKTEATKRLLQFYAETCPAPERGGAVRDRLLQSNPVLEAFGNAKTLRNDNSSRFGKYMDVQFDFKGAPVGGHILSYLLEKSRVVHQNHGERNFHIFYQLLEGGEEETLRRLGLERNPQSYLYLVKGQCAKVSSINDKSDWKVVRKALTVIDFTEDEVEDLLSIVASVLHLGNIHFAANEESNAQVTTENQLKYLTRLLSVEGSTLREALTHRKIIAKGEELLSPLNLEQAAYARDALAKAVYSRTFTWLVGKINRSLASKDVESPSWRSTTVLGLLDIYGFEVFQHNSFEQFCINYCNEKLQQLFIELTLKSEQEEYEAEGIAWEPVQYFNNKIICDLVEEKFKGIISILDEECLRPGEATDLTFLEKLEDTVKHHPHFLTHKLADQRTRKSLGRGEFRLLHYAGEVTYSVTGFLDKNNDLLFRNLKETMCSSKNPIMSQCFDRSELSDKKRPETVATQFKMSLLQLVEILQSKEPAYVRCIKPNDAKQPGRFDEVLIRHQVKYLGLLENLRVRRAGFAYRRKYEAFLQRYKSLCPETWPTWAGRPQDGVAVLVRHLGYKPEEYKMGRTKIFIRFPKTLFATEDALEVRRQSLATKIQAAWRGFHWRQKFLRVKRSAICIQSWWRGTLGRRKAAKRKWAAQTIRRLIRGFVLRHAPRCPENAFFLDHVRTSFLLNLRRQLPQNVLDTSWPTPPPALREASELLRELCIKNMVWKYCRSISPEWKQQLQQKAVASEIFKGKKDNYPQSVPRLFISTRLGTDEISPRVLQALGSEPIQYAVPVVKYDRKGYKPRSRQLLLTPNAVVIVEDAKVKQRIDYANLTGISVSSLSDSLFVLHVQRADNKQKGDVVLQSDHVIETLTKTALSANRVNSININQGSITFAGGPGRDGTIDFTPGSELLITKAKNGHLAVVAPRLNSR"}, "source": "the supplement of paper PMC10032668", "assay_in_all_cases": "PRISMA enrichment of interactor (LFQ) in peptide spot vs all other peptide spots (log2 fold change); higher = stronger / more specific binding of the interactor to the peptide", "key": {"[1]": {"substrate": "BCCIP, Q9P287", "method": "(§1)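 PRISMA: 15-aa overlapping tiles (offset 8 aa) of 60 microproteins, plus SOS1/GLUT1 control peptides, were spot-synthesized on cellulose membranes in triplicate. Membranes were incubated with benzonase-treated HEK293T lysate, and bound proteins were identified by LC-MS/MS with LFQ. Enrichment is the log2 fold change of each protein in one spot versus all other spots. Only interactors passing the significance cutoff are listed.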"}, "BTF3L4, Q96K17": {"target": "BTF3L4, Q96K17", "method": "as §1"}, "CALR, P27797": {"target": "CALR, P27797", "method": "as §1"}, "CORO1A, P31146": {"target": "CORO1A, P31146", "method": "as §1"}, "EIF3B, P55884": {"target": "EIF3B, P55884", "method": "as §1"}, "EIF3F, O00303": {"target": "EIF3F, O00303", "method": "as §1"}, "EIF3H, O15372": {"target": "EIF3H, O15372", "method": "as §1"}, "ELOVL5, Q9NYP7": {"target": "ELOVL5, Q9NYP7", "method": "as §1"}, "GTF2E2, P29084": {"target": "GTF2E2, P29084", "method": "as §1"}, "GTF2F1, P35269": {"target": "GTF2F1, P35269", "method": "as §1"}, "HAGH, Q16775": {"target": "HAGH, Q16775", "method": "as §1"}, "HMGB1, P09429": {"target": "HMGB1, P09429", "method": "as §1"}, "HOMER2, Q9NSB8": {"target": "HOMER2, Q9NSB8", "method": "as §1"}, "HTT, P42858": {"target": "HTT, P42858", "method": "as §1"}, "LSM5, Q9Y4Y9": {"target": "LSM5, Q9Y4Y9", "method": "as §1"}, "MRM2, Q9UI43": {"target": "MRM2, Q9UI43", "method": "as §1"}, "MYO1C, O00159": {"target": "MYO1C, O00159", "method": "as §1"}, "NAF1, Q96HR8": {"target": "NAF1, Q96HR8", "method": "as §1"}, "NAP1L1, P55209": {"target": "NAP1L1, P55209", "method": "as §1"}, "NUCKS1, Q9H1E3": {"target": "NUCKS1, Q9H1E3", "method": "as §1"}, "OGT, O15294": {"target": "OGT, O15294", "method": "as §1"}, "PTMA, P06454": {"target": "PTMA, P06454", "method": "as §1"}, "SAAL1, Q96ER3": {"target": "SAAL1, Q96ER3", "method": "as §1"}, "SDF2, Q99470": {"target": "SDF2, Q99470", "method": "as §1"}, "SLC25A24, Q6NUK1": {"target": "SLC25A24, Q6NUK1", "method": "as §1"}, "SURF6, O75683": {"target": "SURF6, O75683", "method": "as §1"}, "ZFC3H1, O60293": {"target": "ZFC3H1, O60293", "method": "as §1"}, "BIN1, O00499": {"target": "BIN1, O00499", "method": "as §1"}, "CAPZA1, P52907": {"target": "CAPZA1, P52907", "method": "as §1"}, "CAPZB, P47756": {"target": "CAPZB, P47756", "method": "as §1"}, "CD2AP, Q9Y5K6": {"target": "CD2AP, Q9Y5K6", "method": "as §1"}, "CDK5, Q00535": {"target": "CDK5, Q00535", "method": "as §1"}, "EPS15L1, Q9UBC2": {"target": "EPS15L1, Q9UBC2", "method": "as §1"}, "FBXO3, Q9UK99": {"target": "FBXO3, Q9UK99", "method": "as §1"}, "GRB2, P62993": {"target": "GRB2, P62993", "method": "as §1"}, "HTATSF1, O43719": {"target": "HTATSF1, O43719", "method": "as §1"}, "LASP1, Q14847": {"target": "LASP1, Q14847", "method": "as §1"}, "NCK1, P16333": {"target": "NCK1, P16333", "method": "as §1"}, "PACSIN2, Q9UNF0": {"target": "PACSIN2, Q9UNF0", "method": "as §1"}, "RCN2, Q14257": {"target": "RCN2, Q14257", "method": "as §1"}, "RTTN, Q86VV8": {"target": "RTTN, Q86VV8", "method": "as §1"}, "RUSC1, Q9BVN2": {"target": "RUSC1, Q9BVN2", "method": "as §1"}, "SET, Q01105": {"target": "SET, Q01105", "method": "as §1"}, "SH3KBP1, Q96B97": {"target": "SH3KBP1, Q96B97", "method": "as §1"}, "SPAST, Q9UBP0": {"target": "SPAST, Q9UBP0", "method": "as §1"}, "SRSF1, Q07955": {"target": "SRSF1, Q07955", "method": "as §1"}}, "note": "This is one part of the list. The list holds hits alone, and they repeat only in part."}
{"binder": "VSRLSPTEKKKKKMS", "note": "[ZEB2]", "values": [{"measurement": "PRISMA enrichment of interactor (log2)", "setting": "[1]", "result": 4.36}, {"measurement": "PRISMA enrichment of interactor (log2)", "setting": "BTF3L4, Q96K17", "result": 4.23}, {"measurement": "PRISMA enrichment of interactor (log2)", "setting": "CALR, P27797", "result": 5.36}, {"measurement": "PRISMA enrichment of interactor (log2)", "setting": "CORO1A, P31146", "result": 3.76}, {"measurement": "PRISMA enrichment of interactor (log2)", "setting": "EIF3B, P55884", "result": 4.57}, {"measurement": "PRISMA enrichment of interactor (log2)", "setting": "EIF3F, O00303", "result": 4.58}, {"measurement": "PRISMA enrichment of interactor (log2)", "setting": "EIF3H, O15372", "result": 4.94}, {"measurement": "PRISMA enrichment of interactor (log2)", "setting": "ELOVL5, Q9NYP7", "result": 4.89}, {"measurement": "PRISMA enrichment of interactor (log2)", "setting": "GTF2E2, P29084", "result": 6.34}, {"measurement": "PRISMA enrichment of interactor (log2)", "setting": "GTF2F1, P35269", "result": 4.49}, {"measurement": "PRISMA enrichment of interactor (log2)", "setting": "HAGH, Q16775", "result": 10.7}, {"measurement": "PRISMA enrichment of interactor (log2)", "setting": "HMGB1, P09429", "result": 6.06}, {"measurement": "PRISMA enrichment of interactor (log2)", "setting": "HOMER2, Q9NSB8", "result": 5.03}, {"measurement": "PRISMA enrichment of interactor (log2)", "setting": "HTT, P42858", "result": 4.04}, {"measurement": "PRISMA enrichment of interactor (log2)", "setting": "LSM5, Q9Y4Y9", "result": 4.02}, {"measurement": "PRISMA enrichment of interactor (log2)", "setting": "MRM2, Q9UI43", "result": 4.58}, {"measurement": "PRISMA enrichment of interactor (log2)", "setting": "MYO1C, O00159", "result": 6.19}, {"measurement": "PRISMA enrichment of interactor (log2)", "setting": "NAF1, Q96HR8", "result": 5.44}, {"measurement": "PRISMA enrichment of interactor (log2)", "setting": "NAP1L1, P55209", "result": 5.72}, {"measurement": "PRISMA enrichment of interactor (log2)", "setting": "NUCKS1, Q9H1E3", "result": 3.98}, {"measurement": "PRISMA enrichment of interactor (log2)", "setting": "OGT, O15294", "result": 5.53}, {"measurement": "PRISMA enrichment of interactor (log2)", "setting": "PTMA, P06454", "result": 7.58}, {"measurement": "PRISMA enrichment of interactor (log2)", "setting": "SAAL1, Q96ER3", "result": 4.23}, {"measurement": "PRISMA enrichment of interactor (log2)", "setting": "SDF2, Q99470", "result": 6.71}, {"measurement": "PRISMA enrichment of interactor (log2)", "setting": "SLC25A24, Q6NUK1", "result": 4.56}, {"measurement": "PRISMA enrichment of interactor (log2)", "setting": "SURF6, O75683", "result": 5.86}, {"measurement": "PRISMA enrichment of interactor (log2)", "setting": "ZFC3H1, O60293", "result": 5.25}]}
{"binder": "EVPVPPPVPPRRRP", "note": "[SOS1_WT_3]", "values": [{"measurement": "PRISMA enrichment of interactor (log2)", "setting": "BIN1, O00499", "result": 4.55}, {"measurement": "PRISMA enrichment of interactor (log2)", "setting": "CAPZA1, P52907", "result": 4.5}, {"measurement": "PRISMA enrichment of interactor (log2)", "setting": "CAPZB, P47756", "result": 4.98}, {"measurement": "PRISMA enrichment of interactor (log2)", "setting": "CD2AP, Q9Y5K6", "result": 7.12}, {"measurement": "PRISMA enrichment of interactor (log2)", "setting": "CDK5, Q00535", "result": 4.05}, {"measurement": "PRISMA enrichment of interactor (log2)", "setting": "EPS15L1, Q9UBC2", "result": 4.64}, {"measurement": "PRISMA enrichment of interactor (log2)", "setting": "FBXO3, Q9UK99", "result": 6.5}, {"measurement": "PRISMA enrichment of interactor (log2)", "setting": "GRB2, P62993", "result": 7.85}, {"measurement": "PRISMA enrichment of interactor (log2)", "setting": "HTATSF1, O43719", "result": 5.08}, {"measurement": "PRISMA enrichment of interactor (log2)", "setting": "LASP1, Q14847", "result": 4.31}, {"measurement": "PRISMA enrichment of interactor (log2)", "setting": "NCK1, P16333", "result": 3.36}, {"measurement": "PRISMA enrichment of interactor (log2)", "setting": "PACSIN2, Q9UNF0", "result": 6}, {"measurement": "PRISMA enrichment of interactor (log2)", "setting": "RCN2, Q14257", "result": 4.61}, {"measurement": "PRISMA enrichment of interactor (log2)", "setting": "RTTN, Q86VV8", "result": 4.23}, {"measurement": "PRISMA enrichment of interactor (log2)", "setting": "RUSC1, Q9BVN2", "result": 4.73}, {"measurement": "PRISMA enrichment of interactor (log2)", "setting": "SET, Q01105", "result": 3.74}, {"measurement": "PRISMA enrichment of interactor (log2)", "setting": "SH3KBP1, Q96B97", "result": 4.26}, {"measurement": "PRISMA enrichment of interactor (log2)", "setting": "SPAST, Q9UBP0", "result": 3.74}, {"measurement": "PRISMA enrichment of interactor (log2)", "setting": "SRSF1, Q07955", "result": 4.26}]}
